Experimental findings from patent publication US20110207628A1 are described below.

Results are given in words; binding and its absence hold for the method and conditions named. Binding seen in cells or lysates may run through a third protein. Some entries that bind do so weakly or less than the wild type. Where a sequence is shown, tags or fusion partners need not be part of it.

For experiment [1], the target named is T1, FLAG-tagged Tulp1 (full-length mouse Tulp1 with N-terminal FLAG tag) (mouse) (UniProt Q9Z273).
T1 sequence: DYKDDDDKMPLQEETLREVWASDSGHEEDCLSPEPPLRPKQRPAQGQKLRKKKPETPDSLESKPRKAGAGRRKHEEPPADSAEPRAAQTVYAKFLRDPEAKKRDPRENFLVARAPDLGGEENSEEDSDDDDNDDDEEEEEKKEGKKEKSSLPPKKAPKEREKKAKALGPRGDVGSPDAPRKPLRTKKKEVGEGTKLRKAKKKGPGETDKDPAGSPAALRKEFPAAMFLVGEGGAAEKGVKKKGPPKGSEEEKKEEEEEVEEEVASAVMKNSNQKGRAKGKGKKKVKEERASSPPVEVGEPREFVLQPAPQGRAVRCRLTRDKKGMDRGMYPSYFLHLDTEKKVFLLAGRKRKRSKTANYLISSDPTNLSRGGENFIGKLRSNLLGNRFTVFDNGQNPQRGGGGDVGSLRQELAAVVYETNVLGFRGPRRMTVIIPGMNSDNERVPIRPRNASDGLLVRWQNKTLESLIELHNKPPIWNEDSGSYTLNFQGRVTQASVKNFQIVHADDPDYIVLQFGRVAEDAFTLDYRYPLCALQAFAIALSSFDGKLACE
The experiment is described as follows: GST pull-down from lysates of FLAG-tagged Tulps, anti-FLAG Western blot. A general note: Immunoblotting shows a protein as a band on a membrane.

Experiment [2] has as its target T1, FLAG-tagged Tulp1 (full-length mouse Tulp1 with N-terminal FLAG tag) (mouse). The experiment is described as follows: GST pull-down, anti-FLAG Western blot.
Experiment [3] has as its target T2, FLAG-Hmgb2 (full-length mouse Hmgb2 with N-terminal FLAG tag) (mouse) (UniProt P30681).
T2 sequence: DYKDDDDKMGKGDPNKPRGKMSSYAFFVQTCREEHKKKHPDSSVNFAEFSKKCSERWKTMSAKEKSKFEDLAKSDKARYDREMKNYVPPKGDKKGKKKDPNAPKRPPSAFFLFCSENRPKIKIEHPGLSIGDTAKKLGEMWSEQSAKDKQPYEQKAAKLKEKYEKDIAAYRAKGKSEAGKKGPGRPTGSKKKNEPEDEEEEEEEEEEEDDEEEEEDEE
The experiment in a line: GST pull-down from FLAG-Hmgb2 HEK293 lysate, anti-FLAG Western blot.

The target of experiment [4] is T3, GST-tubby-F (GST fused to full-length mouse tubby) (Schistosoma japonicum; mouse) (UniProt P50586).
T3 sequence (looked up): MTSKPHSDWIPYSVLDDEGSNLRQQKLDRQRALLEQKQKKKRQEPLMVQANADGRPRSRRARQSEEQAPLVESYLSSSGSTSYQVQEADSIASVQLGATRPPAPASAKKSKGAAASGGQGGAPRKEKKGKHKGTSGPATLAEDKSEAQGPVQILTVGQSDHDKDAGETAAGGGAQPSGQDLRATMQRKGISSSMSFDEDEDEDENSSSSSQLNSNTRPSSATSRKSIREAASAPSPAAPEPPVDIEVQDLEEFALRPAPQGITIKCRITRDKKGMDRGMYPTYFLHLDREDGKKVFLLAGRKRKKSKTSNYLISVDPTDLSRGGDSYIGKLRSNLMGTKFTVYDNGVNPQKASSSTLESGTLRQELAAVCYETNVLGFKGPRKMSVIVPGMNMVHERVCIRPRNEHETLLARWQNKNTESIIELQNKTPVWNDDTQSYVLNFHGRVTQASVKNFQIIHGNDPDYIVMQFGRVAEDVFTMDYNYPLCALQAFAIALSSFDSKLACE
The experiment is described as follows: GST pull-down: GST-tubby with lysate of cells expressing the FLAG-tagged protein, glutathione resin, Western blot with anti-FLAG mAb.

B1: GST-tubby-F (GST fused to full-length mouse tubby) (protein, UniProt P50586 1-505, looked up, not shown: a dimerising Fc or GST)
chain: MTSKPHSDWIPYSVLDDEGSNLRQQKLDRQRALLEQKQKKKRQEPLMVQANADGRPRSRRARQSEEQAPLVESYLSSSGSTSYQVQEADSIASVQLGATRPPAPASAKKSKGAAASGGQGGAPRKEKKGKHKGTSGPATLAEDKSEAQGPVQILTVGQSDHDKDAGETAAGGGAQPSGQDLRATMQRKGISSSMSFDEDEDEDENSSSSSQLNSNTRPSSATSRKSIREAASAPSPAAPEPPVDIEVQDLEEFALRPAPQGITIKCRITRDKKGMDRGMYPTYFLHLDREDGKKVFLLAGRKRKKSKTSNYLISVDPTDLSRGGDSYIGKLRSNLMGTKFTVYDNGVNPQKASSSTLESGTLRQELAAVCYETNVLGFKGPRKMSVIVPGMNMVHERVCIRPRNEHETLLARWQNKNTESIIELQNKTPVWNDDTQSYVLNFHGRVTQASVKNFQIIHGNDPDYIVMQFGRVAEDVFTMDYNYPLCALQAFAIALSSFDSKLACE
With B1, the binding result in experiment [1], in experiment [2] and in experiment [3] was “binds” each time.

B2: FLAG-tagged Tulp1 (full-length mouse Tulp1 with N-terminal FLAG tag) (protein)
chain: DYKDDDDKMPLQEETLREVWASDSGHEEDCLSPEPPLRPKQRPAQGQKLRKKKPETPDSLESKPRKAGAGRRKHEEPPADSAEPRAAQTVYAKFLRDPEAKKRDPRENFLVARAPDLGGEENSEEDSDDDDNDDDEEEEEKKEGKKEKSSLPPKKAPKEREKKAKALGPRGDVGSPDAPRKPLRTKKKEVGEGTKLRKAKKKGPGETDKDPAGSPAALRKEFPAAMFLVGEGGAAEKGVKKKGPPKGSEEEKKEEEEEVEEEVASAVMKNSNQKGRAKGKGKKKVKEERASSPPVEVGEPREFVLQPAPQGRAVRCRLTRDKKGMDRGMYPSYFLHLDTEKKVFLLAGRKRKRSKTANYLISSDPTNLSRGGENFIGKLRSNLLGNRFTVFDNGQNPQRGGGGDVGSLRQELAAVVYETNVLGFRGPRRMTVIIPGMNSDNERVPIRPRNASDGLLVRWQNKTLESLIELHNKPPIWNEDSGSYTLNFQGRVTQASVKNFQIVHADDPDYIVLQFGRVAEDAFTLDYRYPLCALQAFAIALSSFDGKLACE
As to B2, the binding result in experiment [4] is “binds”.
